{"source": "PubChem BioAssay AID1224830 (NIAID, 2016)", "aim": "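Host factors that control LPS-induced TNF expression in human macrophages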 (primary screen)", "cells": "human THP-1 monocytic leukaemia cells, TNF dual-luciferase reporter clone, PMA-differentiated to macrophage-like cells", "knock-down reagent": "siRNA pool against human genes, 50 nM", "timing": "LPS for 4 h, given about 3 days after siRNA transfection", "challenge": "bacterial LPS (TLR4 ligand), 10 ng/ml", "detection": "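Ratio of firefly to renilla light, scaled to the plate median and expressed as a robust z-score per replicate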", "scale": "TNF reporter robust z-score: higher = stronger TNF reporter response to LPS", "active means": "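Each well counts as active if its z-score is over 2.8 or under -1.5; controls are left without a call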", "note": "In all, the deposit lists about 18,000 reagents; shown is an unselected part. Of all reagents, about 2,900 (16%) were called active. 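Calls are made per well; low scores hint the gene aids the LPS response, high scores that it dampens it.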 Unmarked entries are inactive. Repeated entries: four replicate wells of each siRNA pool."}
{"target": "MEIOC (GeneID 284071)", "TNF reporter robust z-score": 0.03}
{"target": "MEIOC (GeneID 284071)", "TNF reporter robust z-score": -0.04}
{"target": "MEIOC (GeneID 284071)", "TNF reporter robust z-score": 0.33}
{"target": "MEIOC (GeneID 284071)", "TNF reporter robust z-score": -0.57}
{"target": "SLC7A14 (GeneID 57709)", "TNF reporter robust z-score": -1.28}
{"target": "SLC7A14 (GeneID 57709)", "TNF reporter robust z-score": -1.33}
{"target": "SLC7A14 (GeneID 57709)", "TNF reporter robust z-score": -1.05}
{"target": "C5AR1 (GeneID 728)", "TNF reporter robust z-score": -0.59}
{"target": "C5AR1 (GeneID 728)", "TNF reporter robust z-score": -0.08}
{"target": "C5AR1 (GeneID 728)", "TNF reporter robust z-score": -0.07}
{"target": "C5AR1 (GeneID 728)", "TNF reporter robust z-score": -0.14}
{"target": "INTS10 (GeneID 55174)", "TNF reporter robust z-score": 0.99}
{"target": "INTS10 (GeneID 55174)", "TNF reporter robust z-score": 1.36}
{"target": "INTS10 (GeneID 55174)", "TNF reporter robust z-score": 0.17}
{"target": "INTS10 (GeneID 55174)", "TNF reporter robust z-score": 1.09}
{"target": "TAS2R38 (GeneID 5726)", "TNF reporter robust z-score": -0.26}
{"target": "TAS2R38 (GeneID 5726)", "TNF reporter robust z-score": -0.37}
{"target": "TAS2R38 (GeneID 5726)", "TNF reporter robust z-score": -0.58}
{"target": "TAS2R38 (GeneID 5726)", "TNF reporter robust z-score": -0.86}
{"target": "AVPR1B (GeneID 553)", "TNF reporter robust z-score": -0.29}
{"target": "AVPR1B (GeneID 553)", "TNF reporter robust z-score": -0.13}
{"target": "AVPR1B (GeneID 553)", "TNF reporter robust z-score": -0.27}
{"target": "AVPR1B (GeneID 553)", "TNF reporter robust z-score": -0.09}
{"target": "CACNA2D1 (GeneID 781)", "TNF reporter robust z-score": -0.47}
{"target": "CACNA2D1 (GeneID 781)", "TNF reporter robust z-score": -1.1}
{"target": "CACNA2D1 (GeneID 781)", "TNF reporter robust z-score": -1.36}
{"target": "CACNA2D1 (GeneID 781)", "TNF reporter robust z-score": -1.06}
{"target": "CENPL (GeneID 91687)", "TNF reporter robust z-score": 0.14}
{"target": "CENPL (GeneID 91687)", "TNF reporter robust z-score": -0.28}
{"target": "CENPL (GeneID 91687)", "TNF reporter robust z-score": 0.06}
{"target": "CENPL (GeneID 91687)", "TNF reporter robust z-score": -0.51}
{"target": "APOC4 (GeneID 346)", "TNF reporter robust z-score": -0.73}
{"target": "APOC4 (GeneID 346)", "TNF reporter robust z-score": 0.6}
{"target": "APOC4 (GeneID 346)", "TNF reporter robust z-score": 1.51}
{"target": "APOC4 (GeneID 346)", "TNF reporter robust z-score": 0.8}
